Structures are written as SMILES. The list shows only some results of the screen, not a fair sample: it is rich in T/C values a quarter to a half above the control, in often repeated tests (any T/C) and in doses without a T/C. Other doses and runs of a compound stand elsewhere. T/C: endpoint of the treated group in % of that of the vehicle group. Some doses have a count of surviving animals in place of a T/C: the source files T/C as zero there, which appears to mark a toxic dose or a test without result, not a measured value. Some doses without a T/C left all or most animals alive at the check, yet need not have been tolerated: the source hardly ever lists a survival T/C far under the control, and the zero likely stands for such cases as well. Survivors were counted at the toxicity check, usually on the fifth day, unless a day is given; later deaths do not show. Schedules are NCI's codes, read here as Q, the interval in days (D) or hours (H), X, the number of doses. Where survival is the endpoint, this PubChem deposit counts one and a half times the control or more as active, and values a quarter to a half above the control carry no call in these data; other NCI protocols may use other cut-offs.

The assay relates to L1210 leukemia ip in BDF1 mice, survival T/C. As to the kind of experiment: NCI In Vivo Anticancer Drug Screen. Data for tumor model L1210 Leukemia (intraperitoneal) in B6D2F1 (BDF1) mice. Particulars: T/C endpoint: mean survival time, higher T/C = longer survival.
The mark [1] stands for this setting: dose: 200.0 mg/kg/injection, schedule: Q01DX009 (ip), vehicle: saline with Tween-80.
The mark [2] stands for this setting: dose: 400.0 mg/kg/injection, schedule: Q04DX003 (ip), vehicle: saline with Tween-80.
The mark [3] stands for this setting: dose: 200.0 mg/kg/injection, schedule: Q04DX003 (ip), vehicle: saline with Tween-80.
Setting [4] is: dose: 400.0 mg/kg/injection, schedule: Q01DX001 (ip), vehicle: saline.
Setting [5] is: dose: 200.0 mg/kg/injection, schedule: Q04DX003 (ip), vehicle: Klucel (hydroxypropylcellulose) (HPC).
Where [6] appears, read: dose: 400.0 mg/kg/injection, schedule: Q04DX003 (ip), vehicle: Klucel (hydroxypropylcellulose) (HPC).
Setting [7] is: dose: 200.0 mg/kg/injection, schedule: Q01DX009 (ip), vehicle: saline.
Where [8] appears, read: dose: 200.0 mg/kg/injection, schedule: Q04DX003 (ip), vehicle: saline.
Setting [9] is: dose: 400.0 mg/kg/injection, schedule: Q04DX003 (ip), vehicle: saline.
The mark [10] stands for this setting: dose: 100.0 mg/kg/injection, schedule: Q01DX009 (ip), vehicle: Klucel (hydroxypropylcellulose) (HPC).
Where [11] appears, read: dose: 100.0 mg/kg/injection, schedule: Q01DX001 (ip), vehicle: carboxymethylcellulose (CMC).
Where [12] appears, read: dose: 400.0 mg/kg/injection, schedule: Q01DX009 (ip), vehicle: Klucel (hydroxypropylcellulose) (HPC).

Regarding `O=NN(CCCl)C(=O)Nc1ccc(S(=O)(=O)F)cc1`, the T/C (dose: 4.0 mg/kg/injection, schedule: Q01DX001 (ip), vehicle: carboxymethylcellulose (CMC)) was 125 % of control; the T/C (dose: 8.0 mg/kg/injection, schedule: Q01DX001 (ip), vehicle: carboxymethylcellulose (CMC)) was 130 % of control; the T/C (dose: 16.0 mg/kg/injection, schedule: Q01DX001 (ip), vehicle: carboxymethylcellulose (CMC)) was 137 % of control; the T/C (dose: 31.0 mg/kg/injection, schedule: Q01DX001 (ip), vehicle: carboxymethylcellulose (CMC)) was 131 % of control; the T/C (dose: 62.0 mg/kg/injection, schedule: Q01DX001 (ip), vehicle: carboxymethylcellulose (CMC)) is 136 % of control; the T/C (dose: 125.0 mg/kg/injection, schedule: Q01DX001 (ip), vehicle: carboxymethylcellulose (CMC)) was 143 % of control. Also, the T/C (dose: 250.0 mg/kg/injection, schedule: Q01DX001 (ip), vehicle: carboxymethylcellulose (CMC)) is 125 % of control.

Regarding `C=C1N(C)c2ccc(Cl)cc2C1(C)C`, the survivor count under setting [1] is given as 6 of 6 and the survivor count under setting [2] is on record as 5 of 6.

With `N#C/C(=C\C=C\c1ccccc1)C(N)=O`, the survivor count under setting [2] is given as 3 of 6.

For the compound `O=[N+]([O-])c1ccc(Oc2ccc[n+]([O-])c2)c([N+](=O)[O-])c1`, the survivor count reads like this: (dose: 200.0 mg/kg/injection, schedule: Q01DX009 (ip), vehicle: Klucel (hydroxypropylcellulose) (HPC)) 0 of 6; under setting [3], 5 of 6; under setting [2], 0 of 6.

As for `Cc1cc(C(=O)O)c(C)c2c1sc1ccccc12`, the survivor count under setting [4] was 2 of 4.

Consider `CC[N+](C)(CC)CCSC(=O)Nc1ccc(Cc2ccc(NC(=O)SCC[N+](C)(CC)CC)cc2)cc1`, for which the survivor count was 0 of 6 (dose: 25.0 mg/kg/injection, schedule: Q01DX009 (ip), vehicle: Klucel (hydroxypropylcellulose) (HPC)); 0 of 6 (dose: 40.0 mg/kg/injection, schedule: Q04DX003 (ip), vehicle: Klucel (hydroxypropylcellulose) (HPC)); 0 of 6 (dose: 50.0 mg/kg/injection, schedule: Q01DX009 (ip), vehicle: Klucel (hydroxypropylcellulose) (HPC)); 1 of 6 (dose: 50.0 mg/kg/injection, schedule: Q04DX003 (ip), vehicle: Klucel (hydroxypropylcellulose) (HPC)); 0 of 6 (dose: 100.0 mg/kg/injection, schedule: Q04DX003 (ip), vehicle: Klucel (hydroxypropylcellulose) (HPC)); 0 of 6 under setting [5]. The survivor count under setting [6] is given as 0 of 6.

On to `CCOC(=O)c1cc(C(=O)OCC)c(=O)oc1OCC`, for which the survivor count (dose: 300.0 mg/kg/injection, schedule: Q01DX001 (ip), vehicle: saline) was 1 of 6.

As for `COC(=O)CCc1ccc(NP(=O)(N2CC2)N2CC2)cc1`, the T/C (dose: 100.0 mg/kg/injection, schedule: Q01DX015 (ip), vehicle: carboxymethylcellulose (CMC)) is 136 % of control. For the same compound, the survivor count (dose: 200.0 mg/kg/injection, schedule: Q01DX015 (ip), vehicle: carboxymethylcellulose (CMC)) was 5 of 6.

For `CC1CCC2(NC1)OC1CC3C4CCC5CC(OC6OC(CO)C(OC7OC(CO)C(O)C(OC8OCC(O)C(O)C8O)C7OC7OC(CO)C(O)C(O)C7O)C(O)C6O)CCC5(C)C4CCC3(C)C1C2C` (stereo unspecified), the survivor count is listed as 3 of 3 (dose: 50.0 mg/kg/injection, schedule: Q01DX009 (ip), vehicle: saline with Tween-80); 0 of 3 (dose: 100.0 mg/kg/injection, schedule: Q01DX009 (ip), vehicle: saline with Tween-80); 0 of 3 under setting [1].

On to `CNC(=O)O/N=C(/SC)C(C)C`, for which the survivor count is 1 of 6 (dose: 20.0 mg/kg/injection, schedule: Q01DX001 (ip), vehicle: saline); 0 of 6 (dose: 40.0 mg/kg/injection, schedule: Q01DX001 (ip), vehicle: saline); 0 of 6 (dose: 80.0 mg/kg/injection, schedule: Q01DX001 (ip), vehicle: saline).

For `CCOC(CCC#N)c1ccc(C)cc1` (stereo unspecified), the survivor count (dose: 470.0 mg/kg/injection, schedule: Q01DX009 (ip), vehicle: saline with Tween-80) is on record as 5 of 6.

Take `CC[N+](CC)(CC)CCC[n+]1ccc(/C=N\O)cc1`: the survivor count by setting is: under setting [7], 0 of 6; under setting [8], 5 of 6; under setting [9], 1 of 6.

In the case of `Cn1ncc2c1C1(C)CCC2C1(C)C` (stereo unspecified), the survivor count reads like this: under setting [10], 3 of 3; under setting [6], 0 of 6.

Take `O=C(O)CCCc1nc2ccccc2c(=O)[nH]1`: the T/C under setting [11] is 141 % of control.

On to `CCC1CCCCN1CCNc1ccc(CO)c2sc3ccccc3c(=O)c12` (stereo unspecified), for which the survivor count under setting [12] was 3 of 6.

Regarding `COc1ccc(-c2nnc(Cl)o2)cc1`, the survivor count runs as follows: under setting [8], 0 of 6; under setting [9], 0 of 6.

On to `Cn1nnc2c1C(=O)c1ccccc1C2=O`, for which, where the note is “dose: 400.0 mg/kg/injection, schedule: Q04DX003 (ip), vehicle: other”, the survivor count is 2 of 6.

Take `S=C(NCc1ccccc1)NC1CCCCC1`: the survivor count under setting [8] is 2 of 6.

In the case of `O=C(O)CCSc1ccccc1`, the survivor count runs as follows: (dose: 150.0 mg/kg/injection, schedule: Q04DX003 (ip), vehicle: saline) 3 of 6; (dose: 300.0 mg/kg/injection, schedule: Q04DX003 (ip), vehicle: saline) 0 of 6.

Turning to `CSc1nc(C)cc(SC(=N)N)n1`, the survivor count (dose: 100.0 mg/kg/injection, schedule: Q01DX009 (ip), vehicle: saline) is 1 of 6; the survivor count under setting [8] is on record as 2 of 6; the survivor count under setting [9] is reported as 0 of 6.

Turning to `CC[n+]1ccc(Nc2ccc(NC(=O)c3ccc(C(=O)Nc4ccc(Nc5cc[n+](CC)c(N)n5)cc4)cc3)cc2)nc1N`, the T/C (dose: 67.0 mg/kg/injection, schedule: Q01DX001 (ip), vehicle: saline) was 144 % of control. Moreover, the survivor count is, setting by setting: under setting [7], 2 of 6; (dose: 300.0 mg/kg/injection, schedule: Q01DX009 (ip), vehicle: saline) 0 of 6; (dose: 450.0 mg/kg/injection, schedule: Q01DX009 (ip), vehicle: saline) 0 of 6.

Consider `CC1(C)CC(N=Cc2ccccc2O)CC(C)(C)N1O.CC1(C)CC(N=Cc2ccccc2O)CC(C)(C)N1O.[Cu]`, for which the survivor count is, setting by setting: (dose: 100.0 mg/kg/injection, schedule: Q04DX003 (ip), vehicle: saline with Tween-80) 2 of 4; under setting [3], 0 of 4; under setting [2], 0 of 4.

As for `CCN(CC)Cc1c(O)ccc2c3c(c(=O)oc12)CCCC3`, the survivor count is, setting by setting: under setting [11], 2 of 4; (dose: 200.0 mg/kg/injection, schedule: Q01DX001 (ip), vehicle: carboxymethylcellulose (CMC)) 1 of 4; (dose: 400.0 mg/kg/injection, schedule: Q01DX001 (ip), vehicle: carboxymethylcellulose (CMC)) 0 of 4.

`CC[CH2][Ge]([CH2]CC)([CH2]CC)[O][Ge]([CH2]CC)([CH2]CC)[CH2]CC`: under setting [4], the survivor count was 1 of 4.

For the compound `C(=Nc1ccc2c(c1)Cc1ccccc1-2)c1ccccc1`, under setting [12], the survivor count was 6 of 6.

Turning to `CC(=O)Nc1ccc(S(=O)(=O)Cl)cc1`, the survivor count (dose: 300.0 mg/kg/injection, schedule: Q01DX001 (ip), vehicle: other) is listed as 1 of 6.

On to `CCCCNC(=O)Nc1cc(C)c(C)cc1C`, for which the survivor count (dose: 100.0 mg/kg/injection, schedule: Q01DX009 (ip), vehicle: gum acacia) is reported as 6 of 6 and the survivor count (dose: 400.0 mg/kg/injection, schedule: Q01DX009 (ip), vehicle: gum acacia) was 4 of 6.

On to `CC(C)(C)NCC(CN(CC(CNC(C)(C)C)C(=O)c1ccccc1)C(C)(C)C)C(=O)c1ccccc1` (stereo unspecified), for which the survivor count reads like this: under setting [5], 0 of 6; under setting [6], 0 of 6.

With `O=C(O)c1ccc2c(c1)Sc1ccccc1N2`, under setting [6], the survivor count was 2 of 6.

On to `CCC[CH2][Ge]([Cl])([Cl])[CH2]CCC`, for which the survivor count under setting [10] is 3 of 6.

Source of the values: PubChem BioAssay AID248 (DTP/NCI, 2004).
